Assay [1] addresses T1, CERKL-C125W-Flag (pathological point mutant of CERKLa) (human) (UniProt Q49MI3).
T1 sequence: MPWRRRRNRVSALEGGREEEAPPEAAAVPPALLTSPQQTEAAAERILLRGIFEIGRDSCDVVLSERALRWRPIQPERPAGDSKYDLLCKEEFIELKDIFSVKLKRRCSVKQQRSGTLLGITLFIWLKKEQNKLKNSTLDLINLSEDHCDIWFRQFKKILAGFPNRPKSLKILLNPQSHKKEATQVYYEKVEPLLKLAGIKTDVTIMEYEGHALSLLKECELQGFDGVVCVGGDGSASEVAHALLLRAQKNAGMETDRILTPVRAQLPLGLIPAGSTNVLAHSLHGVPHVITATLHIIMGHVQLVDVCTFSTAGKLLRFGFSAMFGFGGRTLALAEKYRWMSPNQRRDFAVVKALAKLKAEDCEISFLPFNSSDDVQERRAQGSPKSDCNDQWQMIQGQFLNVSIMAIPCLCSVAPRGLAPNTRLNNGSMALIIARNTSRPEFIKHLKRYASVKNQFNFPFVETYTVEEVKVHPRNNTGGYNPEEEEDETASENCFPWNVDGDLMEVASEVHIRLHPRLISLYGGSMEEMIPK
As to the kind of experiment: co-IP; Flag immunoprecipitation (M2 Flag beads, 1 h, 4°C; lysis buffer 1% Triton X-100, 150 mM NaCl, 20 mM Tris pH 7.4) from lysates of transfected HEK 293T cells, Western blot of endogenous partners; in some panels cells treated with cycloheximide or colchicine, and lysates treated or not with RNase A (100 µg/mL) at 150, 450 or 600 mM NaCl. (In general: A western blot detects proteins with antibodies after separation by electrophoresis.)

Assay [2] has as its target T2, CERKL-Flag (CERKLa, full length CERKL isoform of 532 amino acids, wild type) (human) (UniProt Q49MI3).
T2 sequence: T1 sequence with W125C
The description is as above.

In assay [3] the target is T2, CERKL-Flag (CERKLa, full length CERKL isoform of 532 amino acids, wild type) (human). Description: co-IP; Flag immunoprecipitation of CERKL-Flag in the presence of 1 µg/ml colchicine (disrupts microtubules), Western blot of alpha and beta-tubulin.

This is an account of results in article PMC3912138.

Where a chain is given by its changes, count along the chain named. No constants are given. Whether binding was seen depends on the method and setting. Binding seen in cells or lysates may run through a third protein. For part of these data: A result given as binding can be weak or reduced; the word gives no strength. Sequences can lack the tags named with a protein.

As for HSP70 (human (endogenous in HEK-293T)), the binding entry in assay [1] is on record as “binds”.

On to “PABP (poly(A) binding protein) (human (endogenous in HEK-293T))”, for which the binding result in assay [1] is “binds”.

“alpha-tubulin (human (endogenous in HEK-293T))”: the binding result in assay [2] is listed as “binds”; in assay [3], “no binding (only with 1 µg/ml colchicine)”.

For “beta-tubulin (human (endogenous in HEK-293T))”, the binding result in assay [2] is “binds”; in assay [3] it was “no binding (only with 1 µg/ml colchicine)”.
